{
  "source": "patent US4002740A",
  "about": "(priority 1975, dated 1977)",
  "test": "Boc solid-phase peptide synthesis; chloromethylated styrene divinyl benzene resin, 200-400 mesh, 1% divinyl benzene, 0.75 mM chloride per gram; dicyclohexyl carbodiimide",
  "conditions": "whole synthesis",
  "note": "Strings that start with PEPTIDE1 are HELM notation: dots part the residues, brackets hold end groups and non-standard residues.",
  "data": [
    {"substance": "PEPTIDE1{G.E.Q.R.K.D.V.Y.V.Q.L.Y.L}$$$$V2.0", "values": [
      {"measurement": "final purity (method not given)", "value": 94, "unit": "%"}
    ]}
  ]
}
